Paper PMC10767445
No constants are given. Whether binding was seen depends on the method and setting. In cells and extracts the contact can be indirect. Here binding means that the protein was enriched with, or labelled near, the bait; the list need not be complete.

The chains behind the UniProt entries cited, without tags or fusion partners.
UniProt Q9Y6M1: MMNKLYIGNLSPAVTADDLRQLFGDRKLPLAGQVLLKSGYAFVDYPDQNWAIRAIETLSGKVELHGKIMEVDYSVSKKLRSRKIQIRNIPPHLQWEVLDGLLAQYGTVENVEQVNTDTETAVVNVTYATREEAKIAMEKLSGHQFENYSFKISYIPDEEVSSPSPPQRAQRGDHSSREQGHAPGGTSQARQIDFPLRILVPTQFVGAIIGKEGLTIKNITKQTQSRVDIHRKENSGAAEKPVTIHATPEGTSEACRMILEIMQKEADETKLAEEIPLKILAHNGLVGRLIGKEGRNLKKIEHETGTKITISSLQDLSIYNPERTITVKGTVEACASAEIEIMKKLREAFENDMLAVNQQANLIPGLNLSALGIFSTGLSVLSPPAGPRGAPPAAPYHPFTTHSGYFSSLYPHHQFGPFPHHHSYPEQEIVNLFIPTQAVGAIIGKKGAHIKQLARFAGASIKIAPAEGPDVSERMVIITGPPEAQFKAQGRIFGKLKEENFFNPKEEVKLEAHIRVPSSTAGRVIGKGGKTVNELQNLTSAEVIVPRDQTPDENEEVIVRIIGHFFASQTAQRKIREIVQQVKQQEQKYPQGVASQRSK
UniProt P60842: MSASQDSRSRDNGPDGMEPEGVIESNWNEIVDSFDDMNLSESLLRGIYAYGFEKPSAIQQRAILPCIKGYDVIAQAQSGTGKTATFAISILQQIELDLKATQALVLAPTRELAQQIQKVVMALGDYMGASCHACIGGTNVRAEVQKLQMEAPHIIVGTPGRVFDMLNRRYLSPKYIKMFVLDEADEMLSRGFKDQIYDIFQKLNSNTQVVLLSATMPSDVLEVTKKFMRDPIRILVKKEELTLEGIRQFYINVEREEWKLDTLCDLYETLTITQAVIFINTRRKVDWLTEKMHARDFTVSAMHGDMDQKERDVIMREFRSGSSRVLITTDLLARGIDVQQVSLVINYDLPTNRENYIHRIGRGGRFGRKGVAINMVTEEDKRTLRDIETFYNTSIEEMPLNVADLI
UniProt P38919: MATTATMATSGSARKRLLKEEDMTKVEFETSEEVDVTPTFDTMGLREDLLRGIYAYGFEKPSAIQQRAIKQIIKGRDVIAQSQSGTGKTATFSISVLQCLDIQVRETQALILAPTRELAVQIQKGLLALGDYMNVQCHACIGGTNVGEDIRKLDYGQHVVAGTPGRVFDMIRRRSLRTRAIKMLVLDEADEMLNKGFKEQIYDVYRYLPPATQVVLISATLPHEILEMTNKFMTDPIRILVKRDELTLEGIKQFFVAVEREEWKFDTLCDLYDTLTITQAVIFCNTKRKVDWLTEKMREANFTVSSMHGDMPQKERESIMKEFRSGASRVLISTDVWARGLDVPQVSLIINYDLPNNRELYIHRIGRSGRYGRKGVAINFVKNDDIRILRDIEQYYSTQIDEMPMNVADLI

Target: IGF2BP2 (human (endogenous in MDA-MB-231 and HCC-1806)) (UniProt Q9Y6M1)
Assay: affinity purification with mass spectrometry; IP-MS of IGF2BP2 from human breast cancer cell lysates, three independent replicates; Protein A/G magnetic beads

Substance	binding
EIF4A1 (from UniProt P60842 1-406)	binds
EIF4A3 (from UniProt P38919 1-411)	binds
